HELM strings list residues between dots; [ac] is acetyl, [am] amide, other brackets name non-standard units.
Assay: general procedure: Boc solid-phase peptide synthesis; phenylacetamidomethyl (PAM) polystyrene resin, or p-methylbenzhydrylamine (mBHA) resin
Details: oxidative folding step, analytical reverse phase HPLC

Substance: PEPTIDE1{C.S.V.T.C.G}$PEPTIDE1,PEPTIDE1,1:R3-5:R3$$$V2.0
- final HPLC purity: 95%

— EP0478101B1 (W.R. Grace & Co.-Conn., priority 1990, dated 1992)
